For 55 compounds, AC50 results are on record in PubChem BioAssay AID1487 (National Center for Advancing Translational Sciences (NCATS), 2009).

SMILES strings stand for the structures. “And” between values parts separate entries of the source, which are not always exact repeats. Equal entries are not always repeated. Some of the results follow. Further columns of the screen follow, without active or inactive calls. The list favours compounds with an active or inconclusive main result. Words in brackets tell the shape of the fitted curve; partial curves, single points and poor fits give uncertain potencies.

This experiment in a line: qHTS Assay for Modulators of Lamin A Splicing. The following applies: HeLa LMNA splicing GFP/RFP minigene ratio, 48 h. In a few lines: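 S3 HeLa stable clones carrying a lamin A-EGFP splicing minigene plus DsRed2 were seeded at 600 cells/well in Opti-MEM with 2% FBS, pin-dosed and incubated 48 h at 37°C. Acumen cytometry (488 nm) gave the GFP/RFP total-intensity ratio.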
In general terms: Quantitative high-throughput screening tests each substance at several concentrations.

Setting [1] is: measured here: RFP viability control channel.
Where [2] appears, read: measured here: GFP splicing reporter channel.

By AC50 is commonly meant the concentration at which the activity in the assay is half-maximal. Take `NC(=O)NC(=O)CC1S/C(=N/N=C2\CSC(=O)N2)NC1=O` (stereo not given): under setting [1], the AC50 was 0.0501 µM [rising, single point].
As for `COc1cc(C(=O)NNC(=O)c2cc(C)[nH]n2)cc(OC)c1OC`, the AC50 under setting [2] was 0.00355 µM [falling, full curve, poor fit] and the AC50 under setting [1] was 0.00316 µM [falling, full curve, poor fit].
In the case of `C/C(=N\NC(=S)NC(C)C)c1cccc([N+](=O)[O-])c1`, the AC50 by setting is: under setting [2], 15.8 µM [rising, single point]; under setting [1], 15.8 µM [rising, single point].
On to `CCOC(=O)c1c(-c2ccccc2)csc1NC(=O)CSc1nncs1`, for which the AC50 under setting [1] was 20 µM [rising, partial curve].
Turning to `CCC(=O)Nc1cccc(NC(=S)NC(=O)c2ccc(Cl)cc2)c1`, the AC50 under setting [2] was 20 µM [rising, single point] and the AC50 under setting [1] is 12.6 µM [rising, partial curve, poor fit].
On to `CCOC(=O)c1c(NC(=O)C2=C(C)NC(=S)NC2c2ccc(C)cc2)sc(C)c1C` (stereo not given), for which the AC50 under setting [1] was 35.5 µM [rising, single point].
In the case of `O=C(Nc1cccc(S(=O)(=O)N2CCCC2)c1)c1ccc2c(c1)OCO2`, the AC50 is, setting by setting: under setting [2], 15.8 µM [rising, single point]; under setting [1], 25.1 µM [rising, single point].
With `Cc1nc(-c2cccc(S(=O)(=O)N3CC(C)CC(C)C3)c2)cs1` (stereo not given), the AC50 is, setting by setting: under setting [2], 14.1 µM [rising, single point]; under setting [1], 20 µM [rising, single point].
On to `CCOc1ccc(NC(=O)Nc2cc(C)ccc2OC)cc1`, for which the AC50 is 1 µM [rising, partial curve, poor fit] under setting [2] and 3.55 µM [rising, single point] under setting [1].
As for `CNC(=S)N/N=C/c1cc(Br)cc(Br)c1O`, the AC50 under setting [1] was 12.6 µM [rising, single point].
Regarding `COc1ccc(NS(=O)(=O)c2ccc3nc(COc4cccc5ccccc45)[nH]c3c2)cc1`, under setting [1], the half-maximal activity concentration (AC50) is 12.6 µM [rising, partial curve].
Regarding `CC(C)NC(=O)c1ccc(Cn2c(SCc3ccc(F)cc3)nc3cccnc32)cc1`, the AC50 under setting [2] was 3.16 µM [falling, single point] and the AC50 under setting [1] is 3.16 µM [falling, single point].
With `CCc1cc(SC#N)cc(CC)c1NC(=O)CCl`, the AC50 under setting [1] is 0.398 µM [falling, full curve, poor fit].
For `CCCN(CCC)S(=O)(=O)c1ccc(NS(=O)(=O)c2ccc(F)cc2)cc1`, the AC50 is 35.5 µM [rising, single point] under setting [2] and 17.8 µM [rising, single point] under setting [1].
Consider `COc1ccc2c(c1)CCc1c(C(=O)N3CC4(C)CC3CC(C)(C)C4)noc1-2` (stereo not given), for which the AC50 was 35.5 µM [rising, single point] under setting [2] and 15.8 µM [rising, single point] under setting [1].
As for `COc1ccccc1C(=O)NC(=O)CSc1cccc[n+]1[O-]`, under setting [1], the AC50 is 0.00501 µM [falling, full curve, poor fit].
`COc1ccc(NC(=O)c2cc3ccccc3o2)c(OC)c1`: the AC50 under setting [2] was 0.158 µM [falling, full curve, poor fit].
For `C/C(=N\N=C(/N)SC1CC(=O)N(c2cccc(Cl)c2)C1=O)c1cccs1` (stereo not given), the AC50 is 25.1 µM [falling, single point] under setting [2] and 22.4 µM [falling, single point] under setting [1].
`CC(=O)OC[C@H]1O[C@@H](Sc2cccc3cccnc23)[C@H](OC(C)=O)[C@@H](OC(C)=O)[C@H]1OC(C)=O`: the AC50 is, setting by setting: under setting [2], 0.282 µM [rising, partial curve]; under setting [1], 7.08 µM [rising, full curve, poor fit].
In the case of `COC(=O)c1cccc(Cn2c(Cl)c(/C=N/NC(=O)c3ccccc3Cl)sc2=O)c1`, the AC50 is, setting by setting: under setting [2], 5.01 µM [falling, single point]; under setting [1], 5.62 µM [falling, partial curve].
Turning to `COc1ccc(Cl)cc1NC(=S)NCCN1CCOCC1`, under setting [2], the AC50 was 3.55 µM [falling, full curve, poor fit].
For `Cc1ccc(-n2cc(-c3ccccc3)c3c(=O)[nH]cnc32)cc1`, the AC50 under setting [1] is 35.5 µM [rising, single point].
For the compound `COc1ccc(-c2csc3ncnc(Oc4ccc5c(C)cc(=O)oc5c4)c23)cc1`, the AC50 under setting [1] is 7.08 µM [rising, partial curve].
For `CC(C)c1cc(CNC(=O)CC2C(=O)NCCN2CC2CCCCC2)on1` (stereo not given), under setting [1], the AC50 is 2 µM [falling, partial curve, poor fit].
In the case of `CCC(=O)Nc1ccc2nc(SCCOc3ccc(C)cc3OC)sc2c1`, under setting [2], the AC50 was 22.4 µM [rising, partial curve, poor fit].
With `CCOC(=O)c1c(C)sc2c1N(C(C)=O)c1cc(Cl)ccc1S2`, the AC50 by setting is: under setting [2], 20 µM [rising, single point]; under setting [1], 28.2 µM [rising, single point].
Take `O=c1c2ccccc2nc(SCc2cccc(F)c2)n1-c1cccc(S(=O)(=O)N2CCCC2)c1`: the AC50 under setting [1] is 35.5 µM [rising, single point].
For the compound `O=C(/C=C/c1ccco1)NC(=S)Nc1ccc(N2CCCC2)cc1`, the AC50 is 11.2 µM [rising, partial curve, poor fit] under setting [2] and 20 µM [rising, partial curve, poor fit] under setting [1].
For the compound `CC(c1ccco1)N(C(=O)COc1ccc(Cl)cc1Cl)c1ccccn1` (stereo not given), the AC50 under setting [1] was 31.6 µM [rising, single point].
As for `O=C(c1c(F)cccc1F)N1CCN(c2cccc(C(F)(F)F)c2)CC1`, the AC50 is, setting by setting: under setting [2], 22.4 µM [rising, single point]; under setting [1], 22.4 µM [rising, single point].
Take `Cc1ccccc1-n1c(C)cc(/C=C2/C(=N)N3C(c4ccccc4)=CSC3=NC2=O)c1C`: the AC50 under setting [1] was 5.62 µM [rising, partial curve].
`O=C(O)Cn1cccc1C(=O)c1ccccc1`: the AC50 under setting [1] is 0.794 µM [falling, full curve, poor fit].
Consider `COc1ccccc1N1CCN(C(=O)c2sc3nc(-c4ccc(F)cc4)cn3c2C)CC1`, for which, under setting [1], the AC50 was 14.1 µM [rising, partial curve, poor fit].
As for `CCN(CC)CCNC(=O)CN1N=C(c2ccc(OC)cc2)CCC1=O`, the AC50 under setting [2] is 3.55 µM [rising, single point].
As for `COc1cc(C(=O)NC(=S)N(CCc2ccccc2)CCc2ccccc2)cc(OC)c1OC`, the AC50 was 17.8 µM [rising, single point] under setting [2] and 22.4 µM [rising, partial curve] under setting [1].
Regarding `COc1ccc(CC(=O)NNC(=O)c2ccc(NC(C)=O)cc2)cc1`, under setting [2], the AC50 is 35.5 µM [falling, partial curve, poor fit].
Take `Cc1nnc(NC(=O)CSc2nc3ccccc3[nH]2)s1`: the AC50 under setting [1] was 0.112 µM [falling, partial curve].
Consider `COc1ccc(C)cc1N(C(=O)c1ccc(F)cc1)c1nc2ccccc2s1`, for which the AC50 is 2.82 µM [rising, single point] under setting [2] and 3.16 µM [rising, partial curve, poor fit] under setting [1].
Consider `CC(c1ccc(C(C)(C)C)cc1)S(=O)CC(O)CO` (stereo not given), for which the concentration at half-maximal activity (AC50) under setting [1] was 0.0631 µM [rising, full curve, poor fit].
`Cc1cc(C)c2c(=O)cc(C(F)(F)F)oc2n1`: the AC50 under setting [1] was 0.00501 µM [falling, full curve, poor fit].
For the compound `CC1CCC(NC(=O)c2ccc(CS(=O)(=O)c3ccc(Cl)cc3)o2)CC1` (stereo not given), under setting [2], the AC50 was 0.251 µM [falling, full curve, poor fit].
In the case of `Cc1cccc(CNc2cc(-c3ccccc3Cl)ncn2)c1`, the AC50 under setting [2] was 3.55 µM [falling, partial curve, poor fit].
Regarding `O=C(Nc1ccc2nccnc2c1)c1ccco1`, under setting [2], the AC50 was 0.0178 µM [rising, full curve, poor fit].
Turning to `COc1cc(C(=O)N2CCN(c3ccc(C)cc3C)CC2)cc(OC)c1OC`, the AC50 under setting [1] was 4.47 µM [rising, full curve].
The same measure, in the same setting: the value for `Cc1ccc2c(c1)nnn2C1CCN(S(=O)(=O)c2ccc(C(=O)N(C)C)cc2)CC1` was 22.4 µM [rising, single point]; that for `COc1ccc(OC)c(-c2cc(C3CCN(c4ncccc4[N+](=O)[O-])CC3)[nH]n2)c1` was 11.2 µM [rising, single point]; that for `O[C@@](CCN1CCCC1)(c1ccccc1)C1CCCCC1` was 0.000398 µM [rising, full curve, poor fit].
In the case of `CCN(CC)CCOc1ccccc1C(C)=O`, the AC50 under setting [2] is 2.51 µM [falling, full curve] and the AC50 under setting [1] is 3.16 µM [falling, partial curve].
As to `COc1ccc(NC(=O)C23CC4CC(C2)CC(c2ccccc2)(C4)C3)c(OC)c1`, under setting [1], the AC50 was 35.5 µM [rising, single point].
Turning to `NCCCCCC(=O)O`, the AC50 under setting [2] is 316 nM [falling, full curve, poor fit] and 5.62 µM [falling, partial curve, poor fit].
In the case of `Cc1ccc(C(=O)c2sc(Nc3ccccc3)c(S(=O)(=O)c3ccccc3)c2N)c(C)c1`, under setting [1], the AC50 was 3.98 µM [rising, partial curve, poor fit].
For the compound `CCOC(=O)c1cccc(NC(=O)Cn2c(=O)c3cccn3c3ccccc32)c1`, the AC50 under setting [1] was 11.2 µM [rising, partial curve, poor fit].
For `CC(C)Oc1ccc(/C=N/NC(=O)c2ccc(N(Cc3ccccc3)S(C)(=O)=O)cc2)cc1`, the AC50 under setting [1] is 12.6 µM [rising, single point].
Regarding `CCC(C)NC(=O)COC(=O)c1oc2ccccc2c1CSc1ccc(Cl)cc1` (stereo not given), the AC50 by setting is: under setting [2], 11.2 µM [rising, partial curve, poor fit]; under setting [1], 35.5 µM [rising, single point].
Turning to `O=C(CNS(=O)(=O)c1ccc(Br)s1)NC1CCCc2ccccc21` (stereo not given), the AC50 reads like this: under setting [2], 35.5 µM [rising, single point]; under setting [1], 35.5 µM [rising, single point].
